The supplement of paper PMC3334620
In all, about 33,000 sequences were measured (“E-score (-0.5 to 0.5)”: median about -0.016, highest 2% from about 0.3 on). The list shows a part of the results.

These sequences were tested against T1, Yer184c (UniProt P39961) (assay: PBM E-score (8-mer binding enrichment) (E-score (-0.5 to 0.5)); higher = stronger / more preferred TF binding). Details: protein concentration: 100 nM; construct: GST-full length.
T1 sequence: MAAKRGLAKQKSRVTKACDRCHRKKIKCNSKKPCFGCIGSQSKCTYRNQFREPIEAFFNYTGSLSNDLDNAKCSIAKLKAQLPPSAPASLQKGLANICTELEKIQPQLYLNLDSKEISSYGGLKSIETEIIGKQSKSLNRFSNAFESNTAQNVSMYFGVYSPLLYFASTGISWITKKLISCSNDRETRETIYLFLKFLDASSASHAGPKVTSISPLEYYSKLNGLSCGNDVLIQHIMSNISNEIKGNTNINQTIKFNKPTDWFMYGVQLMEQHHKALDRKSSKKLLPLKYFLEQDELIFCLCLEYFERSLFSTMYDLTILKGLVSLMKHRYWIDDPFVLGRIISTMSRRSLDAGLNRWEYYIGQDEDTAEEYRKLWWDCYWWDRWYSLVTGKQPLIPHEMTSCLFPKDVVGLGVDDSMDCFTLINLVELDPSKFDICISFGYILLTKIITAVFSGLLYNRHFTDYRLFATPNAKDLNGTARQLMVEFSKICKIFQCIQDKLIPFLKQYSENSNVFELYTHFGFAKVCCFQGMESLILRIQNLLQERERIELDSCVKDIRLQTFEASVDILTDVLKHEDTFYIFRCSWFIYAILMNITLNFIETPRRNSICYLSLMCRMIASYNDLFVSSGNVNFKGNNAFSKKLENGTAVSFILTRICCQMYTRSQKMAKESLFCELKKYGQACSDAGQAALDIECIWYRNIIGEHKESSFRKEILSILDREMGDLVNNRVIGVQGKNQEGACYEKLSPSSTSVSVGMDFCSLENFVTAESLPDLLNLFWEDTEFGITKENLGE
Outline: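 Yeast transcription factors, full-length or as DNA-binding domains, were expressed with a GST tag using PURExpress in vitro transcription/translation. At about 100-200 nM they were applied to universal all-10-mer Agilent arrays, double-stranded by primer extension on fresh or once-stripped slides. Fluorescent anti-GST detected bound protein, and masliner normalised the scans. E-scores for ungapped eight-base words, pooled with reverse complements, came from the Universal PBM Analysis Suite.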

Row | Sequence | PBM E-score
1 | CCCACTTC | -0.0683
2 | ATATCCAG | -0.0198
3 | ATAATCCA | 0.137
4 | ATAGGGAG | -0.359
5 | CCGGTCGA | 0.141
6 | AAACATAA | -0.0233
7 | TAAACATA | 0.178
8 | ATTTGTTG | 0.0877
9 | ACTAGTCT | -0.156
10 | AGGCAAAG | -0.0885
11 | AATGGAGA | -0.0475
12 | CGGTAGGA | -0.0428
13 | AGGGATAA | 0.0505
14 | GACCCTGC | -0.0758
15 | GCCGCCGA | 0.264
16 | ATTCACGA | 0.0428
17 | CTGTTATA | 0.109
18 | ACGACGAG | -0.218
19 | AAGCTATT | -0.0139
20 | GATTGTAA | 0.158
21 | AAACGGAG | 0.152
22 | CAACTTAG | 0.14
23 | GATGTTCA | -0.0235
24 | GACGGTCC | -0.0736
25 | ACAAGTTG | -0.0672

Row | Sequence | PBM E-score
26 | GCCAACGA | -0.0411
27 | AAATTTAG | 0.246
28 | AACAAACA | 0.254
29 | CCGGAGCG | 0.228
30 | CAACGGGC | 0.0443
31 | CCTGCGTC | -0.204
32 | TCTGTTAA | 0.0915
33 | AAACCCCT | -0.294
34 | ACATGAGA | 0.0734
35 | ATTAGAAC | 0.192
36 | AGCACGCA | -0.0396
37 | GGTAAGCA | -0.146
38 | ACGGGTTG | -0.116
39 | ATGGGCGC | -0.223
40 | CTACGCCA | -0.234
41 | CCGAAGTC | 0.159
42 | GCACACCC | -0.238
43 | ACTACGCT | -0.176
44 | TGCATCCA | -0.108
45 | TCAGGGCA | -0.141
46 | CAACCTCA | -0.202
47 | CGGAAGAA | 0.293
48 | CTACTGCC | -0.179
49 | GCCCTTGA | -0.225
50 | TAGATGAA | 0.0708

Row | Sequence | PBM E-score
51 | CCCGCAAC | 0.168
52 | CGGTGGCC | 0.0286
53 | ACGCTAGT | 0.0345
54 | AAAAACTG | -0.124
55 | GAGGCTAA | -0.0329
56 | CGGCAGGA | 0.122
57 | AAGCCTCT | -0.281
58 | AAGGTGAG | -0.133
59 | AAGCTGCA | -0.0649
60 | CAAATTGA | -0.128
61 | TACGAACA | 0.178
62 | CAGAGCTC | -0.139
63 | GCGCGACA | 0.0188
64 | GCACCAAC | -0.016
65 | GAGTTACC | -0.0353
66 | ACGGTTCA | -0.19
67 | ACGGGCTC | -0.234
68 | AGAGATCT | -0.168
69 | AGGCACAA | -0.0238
70 | GAACCGTC | -0.0897
71 | GGGAATGA | 0.126
72 | GAGGTGCC | 0.0277
73 | GCCACTTA | -0.206
74 | TACGACTA | -0.0569
75 | ATCTATTG | 0.11

Row | Sequence | PBM E-score
76 | AGACGCGG | 0.121
77 | CCCCACTA | -0.344
78 | CAGCATAC | -0.217
79 | AACATATG | -0.00254
80 | AACTTAAT | 0.205
81 | ACATAGTA | 0.09
82 | AGGGTAAA | -0.00637
83 | CCAATCAA | -0.00381
84 | CTATGCGA | -0.211
85 | CCTTGAGA | -0.0348
86 | ACCAGATC | -0.107
87 | CATGACCA | -0.139
88 | ATAATCAT | 0.194
89 | CCCGTGCG | 0.131
90 | GGCTAGCA | -0.116
91 | ACAACGCG | 0.0628
92 | GAGTGTAA | -0.229
93 | CGATCCTA | -0.167
94 | AGGGAACC | -0.101
95 | GAGCTCGC | 0.0706
96 | AAGGAAAA | 0.144
97 | CCAGTATC | -0.197
98 | AGGGCAAT | -0.111
99 | AAGGCGGC | -0.0217
100 | CATAATCC | -0.0979

An excerpt of these results, with tabs.
Row	Sequence	PBM E-score
9	ACTAGTCT	-0.156
10	AGGCAAAG	-0.0885

Next part:

Row | Sequence | PBM E-score
101 | AGAACAGG | -0.0745
102 | TTGTTAAA | 0.227
103 | GCGCAGTA | -0.0507
104 | GATCGTCC | -0.0573
105 | ACTACGTC | -0.225
106 | GAATGGGA | -0.228
107 | ATATCTTC | 0.122
108 | CTTGCCCC | -0.119
109 | CACGGTTC | -0.0841
110 | CCGAATTA | 0.231
111 | AAGCACCC | -0.11
112 | AAATATGA | 0.0794
113 | ATCGAACG | -0.107
114 | ACCTACCT | -0.107
115 | ATGACGCC | -0.186
116 | ACATCTGC | -0.309
117 | GGTGTCGA | -0.132
118 | CTGAGGAC | -0.0618
119 | TACTTCCA | 0.00323
120 | ATCCACAC | -0.142
121 | AAGTGTCG | 0.0981
122 | CGTCGGTC | 0.115
123 | ACTAATCG | 0.122
124 | CGCGCTAG | 0.00944
125 | GAGCACGA | 0.0734

Row | Sequence | PBM E-score
126 | GCCATACA | -0.0148
127 | GATGATCA | 0.0362
128 | AGCTAGAT | -0.104
129 | ATAGGAGA | -0.337
130 | GGCCGTAA | 0.189
131 | CCCCTTGA | -0.0387
132 | TAGGTTCA | 0.117
133 | GTTAGCTA | -0.119
134 | CCGGAATA | 0.339
135 | GTTAAGCA | 0.031
136 | GCAGACAC | 0.0863
137 | ATCAAATG | 0.15
138 | AGAATGCA | 0.0885
139 | CGGCATGC | 0.272
140 | ACTAGGGG | -0.256
141 | TGCCTACA | -0.0126
142 | GCGGGGAC | -0.0805
143 | GTGGTTAA | 0.0141
144 | CGTCGTGC | 0.078
145 | AGGTATAA | 0.0783
146 | AATGTAAA | 0.131
147 | CCTGGTCA | -0.308
148 | AGATCGTG | -0.18
149 | AAGGCCCA | -0.266
150 | CACGCATG | -0.0511

Quoted from the listing.
For PBM E-score, GCCGCCGA reads 0.264
For PBM E-score, CTATGCGA reads -0.211
For PBM E-score, ACGACGAG reads -0.218
For PBM E-score, CTGTTATA reads 0.109
For PBM E-score, ATATCTTC reads 0.122
For PBM E-score, CCAATCAA reads -0.00381
For PBM E-score, CCCGCAAC reads 0.168

(further entries)

Row | Sequence | PBM E-score
151 | AATCATCT | -0.0795
152 | CTATACGA | 0.00809
153 | CACGGCGG | 0.00982
154 | ACCTATCA | -0.101
155 | AAGATAAG | 0.0357
156 | ACCTAGTA | -0.242
157 | TTCTGCAA | 0.128
158 | ATATGCTC | 0.00244
159 | ATACGCAT | 0.0347
160 | AAGCAGGA | 0.0757
161 | CCATATGG | -0.118
162 | GGCCTTAA | 0.0628
163 | TCTGCCAA | -0.017
164 | GGGCTGTA | -0.205
165 | TACCGGTA | 0.23
166 | AGACGATA | 0.0566
167 | AATGCGGA | 0.173
168 | AACCAAGT | 0.014
169 | CTGAGTCA | -0.161
170 | ATGTGACC | -0.109
171 | ATGAGAGA | 0.0607
172 | CCCCCAGC | -0.259
